# Laboratory results taken from paper PMC7819943, “Rice protein-binding microarrays: a tool to detect cis-acting elements near promoter regions in rice”.
# The list shows a part of the results.
# Biological target: T1, OsSMF1 (Oryza sativa, UniProt Q6ZLB0 1-436)
# T1 sequence: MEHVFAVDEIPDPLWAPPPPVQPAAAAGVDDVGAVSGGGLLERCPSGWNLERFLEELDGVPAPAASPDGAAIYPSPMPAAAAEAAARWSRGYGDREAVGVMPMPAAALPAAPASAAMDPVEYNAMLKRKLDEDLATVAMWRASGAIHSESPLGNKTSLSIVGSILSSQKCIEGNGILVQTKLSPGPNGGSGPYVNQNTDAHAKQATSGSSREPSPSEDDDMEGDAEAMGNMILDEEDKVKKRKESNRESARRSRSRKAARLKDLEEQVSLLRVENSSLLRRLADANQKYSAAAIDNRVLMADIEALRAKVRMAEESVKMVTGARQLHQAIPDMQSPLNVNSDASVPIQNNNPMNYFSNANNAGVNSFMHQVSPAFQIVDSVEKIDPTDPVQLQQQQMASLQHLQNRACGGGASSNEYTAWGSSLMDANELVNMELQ
# Test: protein-binding microarray (RPBM); PBS, 2% BSA, 51.3 ng/ul salmon testes DNA, 50 uM zinc acetate, 200 nM TF, 25 C, 1 h; high values mean tight binding
# Settings: protein: recombinant; tags: N-terminal polyhistidine and DsRed monomer fusion (pET32a); chain copies: 2; label: CyDye5-dUTP incorporated in the synthesized complementary strand; 3' TTTTT single-stranded linker to array surface; dsDNA, one strand shown
# Method in brief: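 Binding signal is defined as the fluorescence intensity of each feature in arbitrary units, read on an Axon 4000B scanner. Transcription factors with N-terminal polyhistidine and DsRed fusions came from E. coli BL21-CodonPlus and were purified on Ni–NTA. They were incubated at 200 nM for 1 h at 25 °C on a custom Agilent array that had been made double-stranded with Cy5-dUTP, with 50 µM zinc acetate present, and the array was washed.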
row,Sequence,binding signal
1,AGTAGGGATGCTCTTAACGGATGACGAAGCTAAGCTTGCTCGGAGTCACCTAGTGCAG,3240 fluorescence intensity (a.u.)
2,GGCGGCGCAGCCCGTCGCCATGGAGGTGGACGGGAAGCCGCGGAGTCACCTAGTGCAG,3420 fluorescence intensity (a.u.)
3,GAATGGTGGCTACCTGGCGGTCAGATCATCGGAGCTAAGGCGGAGTCACCTAGTGCAG,4870 fluorescence intensity (a.u.)
4,GATTTCTTTCTGCCGTCATCTTCGAATATCCATGACTCGCCGGAGTCACCTAGTGCAG,3840 fluorescence intensity (a.u.)
5,GTTTTGTGCCAGGAGTGATGATGAGGATGATGATTATGCACGGAGTCACCTAGTGCAG,3910 fluorescence intensity (a.u.)
6,CTCACCACCACCGTCGTCATCGTCGTCGTCACCCTCCTCCCGGAGTCACCTAGTGCAG,6620 fluorescence intensity (a.u.)
7,CTCGGCTGTTGCGCCTTCGTTTTGCACCGAGGCTGTGCTACGGAGTCACCTAGTGCAG,55500 fluorescence intensity (a.u.)
8,TCGGATCCGTTTTAGCATGCAATATGTAAAAGTGAAAAGACGGAGTCACCTAGTGCAG,3570 fluorescence intensity (a.u.)
9,TTTGCATACGTGCATGCTTGATGACGTCATGCTGACGTGGCGGAGTCACCTAGTGCAG,63100 fluorescence intensity (a.u.)
10,GTTGAGGTCTCGCGCTCCCGTCCTCGTCTCGTCCTCTCCCCGGAGTCACCTAGTGCAG,21500 fluorescence intensity (a.u.)
11,GATGGAGCTCTGCAGATGCTGACACAGCCAGCCACACAGCCGGAGTCACCTAGTGCAG,8060 fluorescence intensity (a.u.)
12,GCTTTGCCGTTTGCCACTGTTAAGGGCGTGGCAACAATATCGGAGTCACCTAGTGCAG,4190 fluorescence intensity (a.u.)
13,AATTATCTTGAAGCACCTCAACTCAACCTGATGTCATACACGGAGTCACCTAGTGCAG,4390 fluorescence intensity (a.u.)
14,GGAGTACCACATAGCCGTTCAGCTCTAGTCAAACGTCATTCGGAGTCACCTAGTGCAG,3900 fluorescence intensity (a.u.)
15,CTTTTCTCCCTTCTTTCTCTTTCACGTCATATATGATAATCGGAGTCACCTAGTGCAG,4910 fluorescence intensity (a.u.)
16,AGGGAAAAGAGGAGACGGGAGGAAAGGAACGGAGGAGATGCGGAGTCACCTAGTGCAG,3340 fluorescence intensity (a.u.)
17,GGGTCATATAGAGACGACGATCAAATTTACCTTATTTTAACGGAGTCACCTAGTGCAG,3240 fluorescence intensity (a.u.)
18,AGATTAAGTGGTGGGTGTGCGTGCATGTCTTGAGATCACCCGGAGTCACCTAGTGCAG,5820 fluorescence intensity (a.u.)
19,TTTTATTCTCAGATGTTTCTCGAGGTTGTCAGCACAGCAGCGGAGTCACCTAGTGCAG,4380 fluorescence intensity (a.u.)
20,GTACATCTGGCGCGGCGGCCACGAGTACATCGGGACGTGGCGGAGTCACCTAGTGCAG,5440 fluorescence intensity (a.u.)
21,CATCTGAACAGCGTCTTAATATCTTAAATGGAAAATTGATCGGAGTCACCTAGTGCAG,30200 fluorescence intensity (a.u.)

row,Sequence,binding signal
1,AAATGAATTAAGCATGACACATTGACATTTTGTTGACAATCGGAGTCACCTAGTGCAG,4230 fluorescence intensity (a.u.)
2,GGATGAATACCATAATTCAGATACGATTTGTGGCATATTCCGGAGTCACCTAGTGCAG,19300 fluorescence intensity (a.u.)
3,GCCCTATTAATAACACATGTAATTAAGCCAACACTAATCCCGGAGTCACCTAGTGCAG,23400 fluorescence intensity (a.u.)
4,TAGAGGCAAGCACGACCAATGAGGACATAGGGAATGGTTCCGGAGTCACCTAGTGCAG,9700 fluorescence intensity (a.u.)
5,ATTTTCTTATCTTTTCATAGACTACGACGTCACCACTATCCGGAGTCACCTAGTGCAG,6080 fluorescence intensity (a.u.)
6,TGTGCCGTGACTCGATGTGCTCCTCCATCTCTTGCTGCAACGGAGTCACCTAGTGCAG,5220 fluorescence intensity (a.u.)
7,GAGATGGGAGGAGAGCTAGCTAGCCGCCGAGGCTGAGCTCCGGAGTCACCTAGTGCAG,40600 fluorescence intensity (a.u.)
8,GCAGGCATTTGGTGAAGGTGAGGTCGACATGGACAGAGAACGGAGTCACCTAGTGCAG,3160 fluorescence intensity (a.u.)
9,CCTTAGCATAGCTGTGTATTAGTAACTCGTTCGTGTCCCTCGGAGTCACCTAGTGCAG,3290 fluorescence intensity (a.u.)
10,AATATAGTTGCTGATGCGCTGTCCAGGATGCCTGTTATACCGGAGTCACCTAGTGCAG,3680 fluorescence intensity (a.u.)
11,CATAATCATGTTAGATCATGACGCTAATGATGTTGGCGCCCGGAGTCACCTAGTGCAG,4540 fluorescence intensity (a.u.)
12,ATTACATACATGACTCATATACACAACATGGAATCTACTTCGGAGTCACCTAGTGCAG,10500 fluorescence intensity (a.u.)
13,AACACCCCATACGACACCCTATATAATATCCGATGCGACACGGAGTCACCTAGTGCAG,27800 fluorescence intensity (a.u.)
14,ACAAGGTTAAGAAATCCAGGTACATTCTACAAAGCTCTCACGGAGTCACCTAGTGCAG,3450 fluorescence intensity (a.u.)
15,TATTGGGCCCTACTCTTCAGCGTGACGTGGATGGGGCGCGCGGAGTCACCTAGTGCAG,11400 fluorescence intensity (a.u.)
16,TTCGTCGCAATCCAATCGTTCAACGTGTACTTTGATCGCCCGGAGTCACCTAGTGCAG,3290 fluorescence intensity (a.u.)
17,AACAACACTCAAGCGCTCATGGAATCAACATGGATTATTTCGGAGTCACCTAGTGCAG,17900 fluorescence intensity (a.u.)
18,TCTCTTTCTTTATTTCTTTAAAATATATTTATAGTTGTCTCGGAGTCACCTAGTGCAG,3490 fluorescence intensity (a.u.)
19,TTGACCGGATGTCGGAACGAGTTTTCAGACACGAATGAAACGGAGTCACCTAGTGCAG,21700 fluorescence intensity (a.u.)
20,TTGTTGGTGTTTCCTCGTCCGCGTCGTCGGTTGCATTCTCCGGAGTCACCTAGTGCAG,3190 fluorescence intensity (a.u.)
21,GAGCACCCGAGCATCGGGGTCATGGCGATGCGCGCGTGGACGGAGTCACCTAGTGCAG,22300 fluorescence intensity (a.u.)

# Some values from above.
# GCCCTATTAATAACACATGTAATTAAGCCAACACTAATCCCGGAGTCACCTAGTGCAG – binding signal: 23400 fluorescence intensity (a.u.)
# AGTAGGGATGCTCTTAACGGATGACGAAGCTAAGCTTGCTCGGAGTCACCTAGTGCAG – binding signal: 3240 fluorescence intensity (a.u.)
# GATGGAGCTCTGCAGATGCTGACACAGCCAGCCACACAGCCGGAGTCACCTAGTGCAG – binding signal: 8060 fluorescence intensity (a.u.)
